# Out of some 1,400 compounds screened, about 50 (4%) were called active.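 The calls were made as follows: active = fitted curve reaches 30% CPE protection at or below the top valid dose, with every test run called active; inconclusive = test runs disagree, some active and some not; inactive = every test run inactive, including effects in the wrong direction.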 The list shows a part of the results. Measured potencies and affinities stand elsewhere.
# Assay: antiviral rescue of DENV2-infected BHK-21 cells – cell-based, ATP luminescence, cherry-pick, dose response (AID 687031);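 also: 0% = infected DMSO wells and 100% = uninfected cell wells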
# Conditions: BHK-21 DENV2 CPE protection, 5 d; at 19.5 µM (top of the series) unless noted
row,SMILES,CPE protection (higher = active)
1,C[C@H]1CN([C@@H](C)CO)C(=O)Cc2cc(NC(=O)CCCCCC(=O)Nc3ccccc3N)ccc2O[C@H]1CN(C)Cc1ccc(C(F)(F)F)cc1,inactive: 39.6% [at 21 µM]
2,Cc1ccc(S(=O)(=O)NC(=O)C2(C)CCN2C(=O)c2ccc(C(F)(F)F)nc2C)cc1 (stereo not given),inactive: -3.52%
3,O=C(COc1ccc(F)cc1)Nc1ccc2c(c1)OCCO2,inactive: 38.9%
4,Cc1cc(C)c(-c2c(O)c3ccccc3n(C)c2=O)c(C)c1,inactive: -25.4%
5,CCc1cc2c(=O)[nH]c(COC)nc2s1,inactive: -0.268%
6,COC(=O)CN(c1cc(Cl)ccc1OC)S(=O)(=O)c1ccc(OC)c(OC)c1,inactive: 3.79%
7,COc1ccc(CC(N)c2csc(NC(=O)c3ccc(OC)cc3)n2)cc1 (stereo not given),inactive: -8.87%
8,COc1ccc(S(=O)(=O)Nc2ccc3c(c2)C(=O)N([C@@H](C)CO)C[C@H](C)[C@@H](CN(C)C(=O)Nc2ccc(C(F)(F)F)cc2)OCCCC[C@H](C)O3)cc1,inactive: 21%
9,Cc1cc(OCC(O)CNC(C)c2ccccc2)ccc1C(C)C (stereo not given),inactive: -5.26%
10,C/C=C/c1ccc([C@H]2[C@@H](CO)N(C(=O)C3CC3)C23CN(C(=O)NC(C)C)C3)cc1,inactive: 7.97%
11,O=C(CN1CCN(C(c2ccccc2)c2ccccc2)CC1)N1CCOCC1,inactive: 27.7%
12,CCN(CC)S(=O)(=O)c1ccc(N2CCOCC2)c(NC(=O)c2ccccc2)c1,inactive: -1.8%
13,COc1ccc(NC(=O)Nc2cccc3c2O[C@H](CN(C)S(=O)(=O)c2ccccc2)[C@H](C)CN([C@@H](C)CO)C3=O)cc1,inactive: -0.618% [at 21 µM]
14,COC(=O)c1c(-c2ccc(OC)cc2)sc2cc3c(cc12)OCO3,inactive: -6.57%
15,CCOC(=O)c1sc(NC(=O)c2ccncc2)c(C#N)c1C,inactive: 3.38%
16,O=C(CCNC(=O)OCC1c2ccccc2-c2ccccc21)NOCc1ccccc1,inactive: -0.354%
17,CN1CCN(S(=O)(=O)c2cccs2)CC1,inactive: 18.8%
18,C[C@@H]1CCCCO[C@H](CN(C)S(=O)(=O)c2ccccc2)[C@@H](C)CN([C@H](C)CO)C(=O)c2cc(NC(=O)Nc3ccc4c(c3)OCO4)ccc2O1,inactive: -47.5%
19,O=C(c1cccc(Cl)c1)N1CCC2(CC1)NCCc1[nH]cnc12,inactive: 4.28%
20,O=C(COc1ccc(-c2nnco2)cc1)NCc1ccccc1Cl,inactive: -5.13%

# Arranged by length of the SMILES (low to high): part of the list above
row,SMILES,CPE protection (higher = active)
15,CCOC(=O)c1sc(NC(=O)c2ccncc2)c(C#N)c1C,inactive: 3.38%
16,O=C(CCNC(=O)OCC1c2ccccc2-c2ccccc21)NOCc1ccccc1,inactive: -0.354%
18,C[C@@H]1CCCCO[C@H](CN(C)S(=O)(=O)c2ccccc2)[C@@H](C)CN([C@H](C)CO)C(=O)c2cc(NC(=O)Nc3ccc4c(c3)OCO4)ccc2O1,inactive: -47.5%

# (cont.)

row,SMILES,CPE protection (higher = active)
1,Cc1nc2ccccc2c(=O)n1-c1ccc(NS(=O)(=O)c2ccccc2)cc1,inactive: 2.65%
2,CCc1nnc(NC(=O)c2ccc(F)c(S(=O)(=O)N3CCCCC3)c2)s1,inactive: -19.2%
3,COc1ccc(CC(=O)Nc2ccc(C)c(S(=O)(=O)N3CCCCCC3)c2)cc1,inactive: -11.9%
4,O=C(NCc1cccs1)c1cccc(Nc2nc3ccc(Br)cc3[nH]2)c1,inactive: -1.49%
5,Cc1ccccc1-c1cnc(C(O)c2cccc(C)c2C)[nH]1 (stereo not given),inactive: 8.04%
6,Cc1ccc(OCCCCNC(C)c2ccccc2)c(C)c1 (stereo not given),inactive: 0.335%
7,O=C(CNc1cccc(S(=O)(=O)N2CCOCC2)c1)Nc1cccc(Br)c1,inactive: 17.6% [at 10 µM]
8,C[C@@H]1CCCCO[C@@H](CN(C)C(=O)CCC(F)(F)F)[C@@H](C)CN([C@@H](C)CO)C(=O)c2cc(NC(=O)c3ccccc3)ccc2O1,inactive: -2.11%
9,C[C@@H]1CN([C@H](C)CO)C(=O)c2cc(NC(=O)c3ccncc3)ccc2O[C@@H](C)CCCCO[C@H]1CN(C)C,inactive: -9.3%
10,C[C@@H]1CN([C@@H](C)CO)S(=O)(=O)c2ccc(-c3ccncc3)cc2O[C@H]1CN(C)C(=O)CC1CC1,inactive: -17.1%
11,CCOC(=O)C1=C(C)NC(=O)NC1c1ccc(N(C)C)cc1 (stereo not given),inactive: -0.681%
12,Cc1[nH]c(=O)c(C#N)c(C)c1CCC(=O)NCc1cccc(C(F)(F)F)c1,inactive: 8.95%
13,Cc1noc(C)c1NC(=O)N(C)C[C@@H]1Oc2c(NS(=O)(=O)c3ccccc3)cccc2C(=O)N([C@@H](C)CO)C[C@@H]1C,inactive: 1.59%
14,Cc1ccc2c(c1)c1c(n2CC(O)CNC2CCCC2)CCCC1 (stereo not given),inactive: 1.74%
15,CN1CCCC1CCNc1ccc2sc3ccccc3c(=O)c2c1 (stereo not given),inactive: 0.552%
16,CCC(C)(C)C1CCc2[nH]nc(C(=O)NCc3ccccn3)c2C1 (stereo not given),inactive: 13.8% [at 10 µM]
17,CCN(CC)CCCC(C)Nc1nccc2c(Cl)cccc12 (stereo not given),inactive: -3.08%
18,Cc1nnc(NC(=O)CCn2c(=O)oc3ccc(Cl)cc32)s1,inactive: -9.55%
19,COc1ccc(Cl)cc1-c1cc(C(=O)N[C@H](C)c2ccccc2)[nH]n1,inactive: -10.9%
20,O=C1NC(Cc2ccc(O)cc2)c2nc3ccccc3c(=O)n2-c2ccccc21 (stereo not given),inactive: -12.7%

# From PubChem BioAssay AID687031 (Broad Institute, 2013)
